{
  "source": "patent US20030013717A1",
  "about": "“Use of cox-2 inhibitors for constipation” (priority 2000, published 2003)",
  "key": {"dogs": {"test_system": "dogs", "assay": "Dog model of lower esophageal sphincter pressure (LESP)", "type": "in vivo", "conditions": "3 days treatment, measured day 4 after am dose; cisapride 0.14 mg/kg TID, celecoxib 1.2 mg/kg BID; compared to placebo; FIG. 4", "experimental": "Activity in Vivo: Dog Model of Lower Esophageal Sphincter Pressure (LESP) Six adult dogs were instrumented with 14 French esophagostomy tubes. Animals were treated for 3 days with placebo (BID), cisapride (0.14 mg/kg TID) or celecoxib (1.2 mg/kg BID). On day 4 dogs received their am dose of test agent and water perfused manometry catheters were inserted through the esophagostomy tubes. Lower esophageal sphincter pressures (LESPs) were then monitored."}, "Beagle dogs": {"test_system": "Beagle dogs", "assay": "Dog model of gastric emptying (solid phase, gamma camera)", "type": "in vivo", "conditions": "po for three days, measured on fourth day after am dosing; cisapride 0.14 mg/kg TID, celecoxib 2.8 mg/kg BID, 8-acetyl compound 1.2 mg/kg BID; FIG. 3", "experimental": "Activity in Vivo: Dog Model of Gastric Emptying\nBeagle dogs were treated for three days with test agents (po administration): placebo BID; cisapride 0.14 mg/kg TID; celecoxib 2.8 mg/kg BID; or 8-acetyl-3-(4-fluoro-phenyl)-2-(4-methanesulfonyl-phenyl)-imidazo[1,2-a]pyridine 1.2 mg/kg BID. Solid phase gastric emptying was measured on the fourth day following am dosing. The same three animals were used for evaluation of each agent, thus reducing any interanimal variations.\nIsotope-labeled solid food was fed to the dogs for their morning meal and animals were then placed under a gamma camera and scans performed over the 24 to 36 hours."}},
  "note": "At least one compound was matched to its structure with a doubt left.",
  "data": [
    {"smiles": "Cc1ccc(-c2cc(C(F)(F)F)nn2-c2ccc(S(N)(=O)=O)cc2)cc1", "note": "[celecoxib]", "values": [
      {"measurement": "lower esophageal sphincter pressure (LESP)", "setting": "dogs", "result": "increase LESP to a similar degree as cisapride"},
      {"measurement": "rate of solid phase gastric emptying", "setting": "Beagle dogs", "result": "increased the rate of gastric emptying"}
    ]}
  ]
}
